Values joined by “and” are separate entries in the source; they are usually repeats but may differ in a detail not shown here. Equal values may be shown once. This continues a long series; more values of the same kind are listed elsewhere.
How the values were obtained:
[1] = Plasma concentrations during 24-hour continuous intravenous infusion; format: in vivo, Sprague-Dawley rats
Protocol: (§1) The safety and pharmacokinetics of PPTN (KB-1801) in rats receiving continuous intravenous injections of SBECD-containing solutions were analyzed. Three cohorts of six male and six female rats each were given continuous intravenous infusion of PPTN (KB-1801) at 10 mg/kg/day, 30 mg/kg/day or 100 mg/kg/day in a dosing solution containing PPTN at 0.25 mg/mL, 0.75 mg/mL or 2.5 mg/mL and SBECD at about 3.8%. Dosing volume was 40 mIkg/day. [table]

[2] = Urine concentrations, 72-hour continuous intravenous infusion; format: in vivo, Sprague-Dawley rats; conditions: individual animals
Protocol: as §1, with “mIkg/day.” for “mIkg/day. [table]”

[3] = 72-hour IV infusion 10 mg/kg/day, female rats, interval 0-4 h
[4] = 72-hour IV infusion 10 mg/kg/day, female rats, interval 4-9 h
[5] = 72-hour IV infusion 10 mg/kg/day, female rats, interval 20-24 h
[6] = 72-hour IV infusion 10 mg/kg/day, female rats, interval 44-48 h
[7] = 72-hour IV infusion 10 mg/kg/day, female rats, interval 68-72 h
[8] = 72-hour IV infusion 10 mg/kg/day, female rats, interval 92-96 h
[9] = 72-hour IV infusion 10 mg/kg/day, male rats, interval 4-9 h
[10] = 72-hour IV infusion 10 mg/kg/day, male rats, interval 20-24 h
[11] = 72-hour IV infusion 10 mg/kg/day, male rats, interval 44-48 h
[12] = 72-hour IV infusion 10 mg/kg/day, male rats, interval 68-72 h
[13] = 72-hour IV infusion 30 mg/kg/day, female rats, interval 0-4 h
[14] = 72-hour IV infusion 30 mg/kg/day, female rats, interval 4-9 h

Structure (SMILES): O=C(O)c1cc(-c2ccc(C3CCNCC3)cc2)c2ccc(-c3ccc(C(F)(F)F)cc3)cc2c1 [KB-1801, 4-[4-(piperidin-4-yl)phenyl]-7-[4-(trifluoromethyl)phenyl]-2-naphthoic acid]
- Plasma concentration, individual animal ([1]; female Sprague-Dawley rats, 24-hour intravenous infusion at 10 mg/kg, time 1 h, 10 mg/kg): 361.0 ng/mL and 171.3 ng/mL and 115.1 ng/mL
- Plasma concentration, individual animal ([1]; female Sprague-Dawley rats, 24-hour intravenous infusion at 10 mg/kg, time 2 h, 10 mg/kg): 236.8 ng/mL and 224.0 ng/mL
- Plasma concentration, individual animal ([1]; female Sprague-Dawley rats, 24-hour intravenous infusion at 10 mg/kg, time 4 h, 10 mg/kg): 514.4 ng/mL and 318.2 ng/mL
- Plasma concentration, individual animal ([1]; female Sprague-Dawley rats, 24-hour intravenous infusion at 10 mg/kg, time 6 h, 10 mg/kg): 517.6 ng/mL and 464.6 ng/mL
- Plasma concentration, individual animal ([1]; female Sprague-Dawley rats, 24-hour intravenous infusion at 10 mg/kg, time 8 h, 10 mg/kg): 443.8 ng/mL and 454.7 ng/mL
- Plasma concentration, individual animal ([1]; female Sprague-Dawley rats, 24-hour intravenous infusion at 10 mg/kg, time 24 h, 10 mg/kg): 955.6 ng/mL and 1151.8 ng/mL
- Plasma concentration, individual animal ([1]; female Sprague-Dawley rats, 24-hour intravenous infusion at 30 mg/kg, time 1 h, 30 mg/kg): 615.7 ng/mL and 704.9 ng/mL
- Plasma concentration, individual animal ([1]; female Sprague-Dawley rats, 24-hour intravenous infusion at 30 mg/kg, time 2 h, 30 mg/kg): 1031.6 ng/mL and 1309.5 ng/mL
- Plasma concentration, individual animal ([1]; female Sprague-Dawley rats, 24-hour intravenous infusion at 30 mg/kg, time 4 h, 30 mg/kg): 1396.0 ng/mL and 1936.4 ng/mL
- Plasma concentration, individual animal ([1]; female Sprague-Dawley rats, 24-hour intravenous infusion at 30 mg/kg, time 6 h, 30 mg/kg): 1903.2 ng/mL and 1640.0 ng/mL
- Plasma concentration, individual animal ([1]; female Sprague-Dawley rats, 24-hour intravenous infusion at 30 mg/kg, time 8 h, 30 mg/kg): 1362.1 ng/mL and 2091.5 ng/mL
- Plasma concentration, individual animal ([1]; female Sprague-Dawley rats, 24-hour intravenous infusion at 30 mg/kg, time 24 h, 30 mg/kg): 3772.1 ng/mL and 1746.0 ng/mL and 1995.6 ng/mL
- Plasma concentration, individual animal ([1]; female Sprague-Dawley rats, 24-hour intravenous infusion at 100 mg/kg, time 1 h, 100 mg/kg): 1906.4 ng/mL and 1597.2 ng/mL
- Plasma concentration, individual animal ([1]; female Sprague-Dawley rats, 24-hour intravenous infusion at 100 mg/kg, time 2 h, 100 mg/kg): 176.5 ng/mL and 4269.2 ng/mL and 2496.4 ng/mL
- Plasma concentration, individual animal ([1]; female Sprague-Dawley rats, 24-hour intravenous infusion at 100 mg/kg, time 4 h, 100 mg/kg): 5749.5 ng/mL and 5331.1 ng/mL
- Plasma concentration, individual animal ([1]; female Sprague-Dawley rats, 24-hour intravenous infusion at 100 mg/kg, time 6 h, 100 mg/kg): 4434.5 ng/mL and 4923.9 ng/mL
- Plasma concentration, individual animal ([1]; female Sprague-Dawley rats, 24-hour intravenous infusion at 100 mg/kg, time 8 h, 100 mg/kg): 5510.0 ng/mL and 5078.2 ng/mL
- Plasma concentration, individual animal ([1]; female Sprague-Dawley rats, 24-hour intravenous infusion at 100 mg/kg, time 24 h, 100 mg/kg): 10396.6 ng/mL and 8457.1 ng/mL
- Plasma concentration, individual animal ([1]; male Sprague-Dawley rats, 24-hour intravenous infusion at 10 mg/kg, time 2 h, 10 mg/kg): 232.9 ng/mL and 267.6 ng/mL
- Plasma concentration, individual animal ([1]; male Sprague-Dawley rats, 24-hour intravenous infusion at 10 mg/kg, time 4 h, 10 mg/kg): 368.8 ng/mL and 227.7 ng/mL and 537.2 ng/mL
- Plasma concentration, individual animal ([1]; male Sprague-Dawley rats, 24-hour intravenous infusion at 10 mg/kg, time 6 h, 10 mg/kg): 319.8 ng/mL and 422.8 ng/mL
- Plasma concentration, individual animal ([1]; male Sprague-Dawley rats, 24-hour intravenous infusion at 10 mg/kg, time 8 h, 10 mg/kg): 355.4 ng/mL and 464.0 ng/mL
- Plasma concentration, individual animal ([1]; male Sprague-Dawley rats, 24-hour intravenous infusion at 10 mg/kg, time 24 h, 10 mg/kg): 931.8 ng/mL and 453.8 ng/mL and 722.7 ng/mL
- Plasma concentration, individual animal ([1]; male Sprague-Dawley rats, 24-hour intravenous infusion at 30 mg/kg, time 1 h, 30 mg/kg): 953.9 ng/mL and 1465.9 ng/mL and 631.3 ng/mL
- Plasma concentration, individual animal ([1]; male Sprague-Dawley rats, 24-hour intravenous infusion at 30 mg/kg, time 2 h, 30 mg/kg): 918.9 ng/mL and 1589.9 ng/mL and 777.4 ng/mL
- Plasma concentration, individual animal ([1]; male Sprague-Dawley rats, 24-hour intravenous infusion at 30 mg/kg, time 4 h, 30 mg/kg): 1178.3 ng/mL and 1318.0 ng/mL
- Plasma concentration, individual animal ([1]; male Sprague-Dawley rats, 24-hour intravenous infusion at 30 mg/kg, time 6 h, 30 mg/kg): 1593.6 ng/mL and 1640.0 ng/mL
- Plasma concentration, individual animal ([1]; male Sprague-Dawley rats, 24-hour intravenous infusion at 30 mg/kg, time 8 h, 30 mg/kg): 1580.3 ng/mL and 1471.5 ng/mL
- Plasma concentration, individual animal ([1]; male Sprague-Dawley rats, 24-hour intravenous infusion at 30 mg/kg, time 24 h, 30 mg/kg): 3331.2 ng/mL and 2290.3 ng/mL
- Plasma concentration, individual animal ([1]; male Sprague-Dawley rats, 24-hour intravenous infusion at 100 mg/kg, time 1 h, 100 mg/kg): 2774.3 ng/mL and 2044.9 ng/mL
- Plasma concentration, individual animal ([1]; male Sprague-Dawley rats, 24-hour intravenous infusion at 100 mg/kg, time 2 h, 100 mg/kg): 2536.6 ng/mL and 4129.6 ng/mL and 1612.6 ng/mL
- Plasma concentration, individual animal ([1]; male Sprague-Dawley rats, 24-hour intravenous infusion at 100 mg/kg, time 4 h, 100 mg/kg): 3882.2 ng/mL and 4393.3 ng/mL
- Plasma concentration, individual animal ([1]; male Sprague-Dawley rats, 24-hour intravenous infusion at 100 mg/kg, time 6 h, 100 mg/kg): 6326.5 ng/mL and 9474.0 ng/mL and 4167.8 ng/mL
- Plasma concentration, individual animal ([1]; male Sprague-Dawley rats, 24-hour intravenous infusion at 100 mg/kg, time 8 h, 100 mg/kg): 5471.2 ng/mL and 5325.5 ng/mL
- Plasma concentration, individual animal ([1]; male Sprague-Dawley rats, 24-hour intravenous infusion at 100 mg/kg, time 24 h, 100 mg/kg): 8719.6 ng/mL and 6859.8 ng/mL
- Amount in urine [2, 3]: 1.10 µg and 0.0002 µg and 0.0004 µg
- Urine Conc. [2, 3]: 1.10 µg/mL and 0.02 µg/mL and 0.01 µg/mL
- Amount in urine [2, 4]: 2.94 µg and 1.49 µg and 8.54 µg and 5.44 µg and 7.26 µg
- Urine Conc. [2, 4]: 14.7 µg/mL and 14.9 µg/mL and 5.69 µg/mL and 5.44 µg/mL and 18.1 µg/mL
- Amount in urine [2, 5]: 5.14 µg and 9.24 µg and 2.78 µg and 6.21 µg and 6.50 µg
- Urine Conc. [2, 5]: 25.7 µg/mL and 18.5 µg/mL and 13.9 µg/mL and 20.7 µg/mL and 13.0 µg/mL
- Amount in urine [2, 6]: 16.8 µg and 2.18 µg and 6.75 µg and 3.31 µg and 4.53 µg
- Urine Conc. [2, 6]: 11.2 µg/mL and 21.8 µg/mL and 13.5 µg/mL and 16.5 µg/mL and 9.06 µg/mL
- Amount in urine [2, 7]: 1.29 µg and 4.95 µg and 6.21 µg and 3.18 µg and 5.92 µg and 11.1 µg
- Urine Conc. [2, 7]: 12.9 µg/mL and 4.95 µg/mL and 20.7 µg/mL and 31.8 µg/mL and 11.8 µg/mL and 11.1 µg/mL
- Amount in urine [2, 8]: 0.003 µg and 0.01 µg and 0.0005 µg and 0.004 µg and 0.001 µg
- Urine Conc. [2, 8]: 0.01 μg/mL (2×) and 0.10 μg/mL and 0.02 μg/mL and 0.05 μg/mL
- Amount in urine ([2]; 72-hour IV infusion 10 mg/kg/day, male rats, interval 0-4 h): 1.75 µg and 3.96 µg
- Amount in urine [2, 9]: 7.88 µg and 9.98 µg
- Urine Conc. [2, 9]: 33.3 µg/mL
- Amount in urine [2, 10]: 9.72 µg and 20.9 µg
- Urine Conc. [2, 10]: 20.9 µg/mL
- Amount in urine [2, 11]: 34.1 µg and 9.88 µg
- Urine Conc. [2, 11]: 24.7 µg/mL
- Amount in urine [2, 12]: 20.9 µg and 16.1 µg
- Urine Conc. [2, 12]: 16.1 µg/mL
- Amount in urine ([2]; 72-hour IV infusion 10 mg/kg/day, male rats, interval 92-96 h): 0.01 µg
- Amount in urine [2, 13]: 1.98 µg and 2.11 µg and 2.15 µg
- Urine Conc. [2, 13]: 4.94 µg/mL and 5.26 µg/mL and 5.36 µg/mL
- Amount in urine [2, 14]: 10.0 µg and 10.8 µg and 10.6 µg and 33.8 µg and 15.1 µg
- Urine Conc. [2, 14]: 33.4 µg/mL and 21.7 µg/mL and 52.8 µg/mL and 22.6 µg/mL and 30.2 µg/mL
